These are yes or no findings as the source states them, for the method shown. Binding seen in cells or lysates may run through a third protein. Some entries that bind do so weakly or less than the wild type.
Target: T1, Nuclear receptor subfamily 1 group D member 1 (Nr1d1) (human (endogenous in primary PASMCs)) (UniProt P20393)
T1 sequence: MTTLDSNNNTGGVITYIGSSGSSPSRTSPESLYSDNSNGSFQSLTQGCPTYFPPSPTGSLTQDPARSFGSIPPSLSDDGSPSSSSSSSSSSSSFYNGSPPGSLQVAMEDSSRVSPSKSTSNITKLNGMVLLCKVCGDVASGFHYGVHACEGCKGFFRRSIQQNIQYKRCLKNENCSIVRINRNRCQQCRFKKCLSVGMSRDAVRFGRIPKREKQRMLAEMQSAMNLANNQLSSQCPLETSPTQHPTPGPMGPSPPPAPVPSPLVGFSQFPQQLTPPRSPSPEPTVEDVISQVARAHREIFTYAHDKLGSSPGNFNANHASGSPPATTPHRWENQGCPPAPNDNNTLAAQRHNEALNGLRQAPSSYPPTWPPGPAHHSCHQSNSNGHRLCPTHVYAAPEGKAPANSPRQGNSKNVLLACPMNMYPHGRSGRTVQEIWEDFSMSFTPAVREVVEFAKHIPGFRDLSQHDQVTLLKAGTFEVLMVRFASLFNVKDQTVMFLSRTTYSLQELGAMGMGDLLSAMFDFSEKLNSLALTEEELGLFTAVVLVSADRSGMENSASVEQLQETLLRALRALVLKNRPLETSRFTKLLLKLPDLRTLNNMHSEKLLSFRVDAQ
Assay: co-IP; Co-IP of Nr1d1 in primary human PASMCs; details in the Supplemental Methods (not shown)

Protein sequences, listed by entry. Tags and fused reporters are not part of them. Lines headed by an entry give the natural chain unless they say otherwise; changes in a name come on top.
UniProt O75376: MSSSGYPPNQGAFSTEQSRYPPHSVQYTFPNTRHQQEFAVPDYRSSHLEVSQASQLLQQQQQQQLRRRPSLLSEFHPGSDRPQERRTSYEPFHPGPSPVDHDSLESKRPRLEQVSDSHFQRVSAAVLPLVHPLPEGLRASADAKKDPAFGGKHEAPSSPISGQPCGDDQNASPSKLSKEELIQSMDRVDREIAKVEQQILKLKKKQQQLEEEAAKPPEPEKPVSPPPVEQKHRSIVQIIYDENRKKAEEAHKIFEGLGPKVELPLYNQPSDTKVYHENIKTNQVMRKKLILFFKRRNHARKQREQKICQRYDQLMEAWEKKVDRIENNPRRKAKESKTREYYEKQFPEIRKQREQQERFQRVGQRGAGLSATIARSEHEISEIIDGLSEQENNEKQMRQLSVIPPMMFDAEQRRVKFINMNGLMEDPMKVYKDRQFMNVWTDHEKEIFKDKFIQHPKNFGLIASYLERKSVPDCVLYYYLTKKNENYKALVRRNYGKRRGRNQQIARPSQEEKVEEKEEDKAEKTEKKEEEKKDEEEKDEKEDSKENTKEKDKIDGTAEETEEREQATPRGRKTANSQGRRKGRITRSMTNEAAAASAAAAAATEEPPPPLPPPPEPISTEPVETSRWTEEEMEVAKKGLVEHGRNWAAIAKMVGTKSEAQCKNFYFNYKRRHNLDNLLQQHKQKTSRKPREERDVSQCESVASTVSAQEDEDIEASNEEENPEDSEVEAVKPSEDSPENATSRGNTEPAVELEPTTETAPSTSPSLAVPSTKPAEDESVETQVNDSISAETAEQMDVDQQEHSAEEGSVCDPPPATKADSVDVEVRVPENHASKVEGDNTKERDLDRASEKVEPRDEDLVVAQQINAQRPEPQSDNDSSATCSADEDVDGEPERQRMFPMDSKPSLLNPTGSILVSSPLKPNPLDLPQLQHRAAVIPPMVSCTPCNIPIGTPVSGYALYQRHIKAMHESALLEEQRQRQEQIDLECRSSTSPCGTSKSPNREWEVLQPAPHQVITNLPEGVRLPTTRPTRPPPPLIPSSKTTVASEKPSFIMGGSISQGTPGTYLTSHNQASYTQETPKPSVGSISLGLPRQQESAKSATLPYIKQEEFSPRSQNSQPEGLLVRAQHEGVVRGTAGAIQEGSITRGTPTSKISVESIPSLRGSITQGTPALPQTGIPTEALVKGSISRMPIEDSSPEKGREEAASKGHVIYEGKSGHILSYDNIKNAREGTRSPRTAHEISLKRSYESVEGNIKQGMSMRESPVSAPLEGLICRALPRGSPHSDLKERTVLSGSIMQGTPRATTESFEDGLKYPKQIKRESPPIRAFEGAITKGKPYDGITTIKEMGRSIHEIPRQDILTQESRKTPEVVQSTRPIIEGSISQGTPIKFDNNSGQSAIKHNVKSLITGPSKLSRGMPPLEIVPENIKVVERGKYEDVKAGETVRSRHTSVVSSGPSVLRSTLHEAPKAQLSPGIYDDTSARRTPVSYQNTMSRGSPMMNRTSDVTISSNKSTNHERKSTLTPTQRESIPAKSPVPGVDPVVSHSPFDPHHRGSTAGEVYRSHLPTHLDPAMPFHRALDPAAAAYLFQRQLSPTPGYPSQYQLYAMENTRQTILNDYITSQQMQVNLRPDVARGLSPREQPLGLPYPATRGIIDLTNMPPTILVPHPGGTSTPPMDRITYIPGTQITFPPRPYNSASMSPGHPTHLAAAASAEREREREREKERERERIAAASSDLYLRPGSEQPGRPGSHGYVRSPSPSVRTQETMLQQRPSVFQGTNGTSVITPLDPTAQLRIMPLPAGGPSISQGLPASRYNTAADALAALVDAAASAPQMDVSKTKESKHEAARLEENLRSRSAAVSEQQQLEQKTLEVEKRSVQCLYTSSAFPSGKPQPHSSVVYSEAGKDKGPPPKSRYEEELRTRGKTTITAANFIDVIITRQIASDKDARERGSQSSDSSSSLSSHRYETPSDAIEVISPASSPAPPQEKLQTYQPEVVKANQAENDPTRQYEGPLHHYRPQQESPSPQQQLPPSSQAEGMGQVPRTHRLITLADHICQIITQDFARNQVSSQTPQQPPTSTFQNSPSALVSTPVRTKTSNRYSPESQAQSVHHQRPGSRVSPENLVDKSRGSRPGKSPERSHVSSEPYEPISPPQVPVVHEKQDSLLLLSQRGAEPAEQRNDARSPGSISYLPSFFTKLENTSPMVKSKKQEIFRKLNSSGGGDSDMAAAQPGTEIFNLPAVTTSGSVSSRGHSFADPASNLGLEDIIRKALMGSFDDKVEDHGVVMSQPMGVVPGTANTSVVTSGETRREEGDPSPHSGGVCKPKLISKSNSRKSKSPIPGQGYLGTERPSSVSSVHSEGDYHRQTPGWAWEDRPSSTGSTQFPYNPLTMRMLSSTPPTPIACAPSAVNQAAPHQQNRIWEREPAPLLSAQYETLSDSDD

- binding: binds
Substance: NCoR1-HDAC3 complex (from UniProt O75376 1-2440; O15379 1-428)
